Source: the supplement of paper PMC7666118
The other results are listed elsewhere or left out.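 Rule for the calls: active = dose-dependent thermal stabilisation significant by F-test of dose-response against flat model at 10% FDR; inactive = not significant.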

Molecular target: HIVEP1 (UniProt P15822)
Experiment: dose-dependent thermal stabilisation call (2D-TPP, DLPTP, 10% FDR) (binary (1 = stabilised)); higher = stabilised by the compound
Conditions: system: Jurkat gel-filtered lysate; concentration range 1-500 µM
Description: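 2D thermal proteome profiling in gel-filtered Jurkat E6.1 lysate (2 mg/ml) treated with NaGTP (0, 1, 10, 100, 500 uM) for 10 min at room temperature, then heated 3 min at one of 12 temperatures (42-63.9 C). Soluble protein was quantified by TMT10 MS. The value is the DLPTP call of the paper: dose-dependent thermal stabilisation over all temperatures at 10% FDR (F-test of a dose-response against a flat model); one experiment, one call per tested protein.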

Row | SMILES | dose-dependent thermal stabilisation call
1 | Nc1nc2c(ncn2[C@@H]2O[C@H](COP(=O)(O)OP(=O)(O)OP(=O)(O)O)[C@@H](O)[C@H]2O)c(=O)[nH]1 | inactive: 0
